From patent US20170363644A1 come the findings set out here.

Amino acid sequences for entries named in this document (tags omitted). Residues count along the entry.
UniProt P03951, residues 19-625: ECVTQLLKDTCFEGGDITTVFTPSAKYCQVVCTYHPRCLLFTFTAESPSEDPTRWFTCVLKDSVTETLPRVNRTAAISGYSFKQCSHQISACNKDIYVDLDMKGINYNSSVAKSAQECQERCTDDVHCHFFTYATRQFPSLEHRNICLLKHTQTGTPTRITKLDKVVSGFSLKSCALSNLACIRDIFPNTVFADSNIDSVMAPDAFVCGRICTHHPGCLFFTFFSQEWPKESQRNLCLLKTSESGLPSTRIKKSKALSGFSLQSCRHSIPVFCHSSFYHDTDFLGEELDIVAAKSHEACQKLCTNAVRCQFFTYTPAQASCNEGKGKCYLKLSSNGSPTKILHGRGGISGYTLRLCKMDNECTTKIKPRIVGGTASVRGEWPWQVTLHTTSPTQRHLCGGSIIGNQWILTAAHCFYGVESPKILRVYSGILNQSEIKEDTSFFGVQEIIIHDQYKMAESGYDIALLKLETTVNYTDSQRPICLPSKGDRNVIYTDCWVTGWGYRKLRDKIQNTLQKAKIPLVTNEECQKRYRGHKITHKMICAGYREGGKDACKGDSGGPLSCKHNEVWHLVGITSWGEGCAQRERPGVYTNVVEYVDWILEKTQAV

For this test, the target named is activated factor XI (FXIa) (human) (UniProt P03951). Nature of the test: sandwich ELISA for the complex in human plasma: FXI mAb capture, polyclonal C1 inhibitor antibody detection.

No constants are given. Whether binding was seen depends on the method and setting. Some binding calls cover weakened binding; strength is not graded here.

B1: C1 esterase inhibitor (C1inh) (protein, human, UniProt P05155 23-500, looked up)
chain: NPNATSSSSQDPESLQDRGEGKVATTVISKMLFVEPILEVSSLPTTNSTTNSATKITANTTDEPTTQPTTEPTTQPTIQPTQPTTQLPTDSPTQPTTGSFCPGPVTLCSDLESHSTEAVLGDALVDFSLKLYHAFSAMKKVETNMAFSPFSIASLLTQVLLGAGENTKTNLESILSYPKDFTCVHQALKGFTTKGVTSVSQIFHSPDLAIRDTFVNASRTLYSSSPRVLSNNSDANLELINTWVAKNTNNKISRLLDSLPSDTRLVLLNAIYLSAKWKTTFDPKKTRMEPFHFKNSVIKVPMMNSKKYPVAHFIDQTLKAKVGQLQLSHNLSLVILVPQNLKHRLEDMEQALSPSVFKAIMEKLEMSKFQPTLLTLPRIKVTTSQDMLSIMEKLEFFDFSYDLNLCGLTEDPDLQVSAMQHQTVLELTETGVEAAAASAISVARTLLVFEVQQPFLFVLWDQQHKFPVFMGRVYDPRA
For B1, the binding entry is listed as “binds”.
